# Data published in US10040853B2, “Methods and compositions involving NKG2D inhibitors and cancer” (Fred Hutchinson Cancer Research Center, priority 2011, dated 2018).
# “Also recorded” adds a separate entry of the source. For at least one compound, name, drawing or mass did not settle the structure.
# Key:
# P-AKT(S473) = experiment: P-AKT induction after NKG2D crosslinking in freshly isolated cancer cells (immunoblot); assay type: cell-based, human; details: EpCAM+CD45− cancer cells, mAb 1D11 crosslinking; wortmannin 100 nM 2 h before stimulation
# From the text: NKG2D was immunoprecipitated from standard NP-40 buffer lysates of FACSAria-sorted EpCAM^+CD45^− cancer cells (˜5×10^6 per lane), tumor lines (˜5×10^7 cells; 2×10^7 cells with BT-20), and transfectants (5×10^6 cells) using mAb 5C6 immobilized on AminoLink Plus Coupling Resin (Pierce). DAP10 was immunoprecipitated using rabbit polyclonal antibodies (FL-93; Santa Cruz Biotechnology). Immunoblots were probed with polyclonal antibodies to NKG2D or DAP10 (N-20 and N-17; Santa Cruz Biotechnology), or Grb2 (Cell Signaling Technology) and developed using secondary reagents and Supersignal West Dura Extended Duration Substrate (Pierce). Immunoprecipitation and immunoblot detection of mouse NKG2D utilized a rat mAb (clone 191004; R&D Systems) and goat polyclonal reagent (H-15; Santa Cruz Biotechnology), respectively. […] Phosphoproteins and protein controls were detected using rabbit polyclonal antibodies (to P-mTOR, P-S6K1, and P-4E-BP1), mAbs (clones 7C10, 236B4, and 53H11), and anti-rabbit IgG-HRP (all from Cell Signaling Technology). MAPKs were detected with cells grown to semi-confluence in 6-well plates and desensitized for 24 h. […]
# [1] = tested on: P-mTOR(S2448), P-S6K1(T389), and P-4E-BP1(T37/46); experiment: Activation of mTOR-S6K1/4E-BP1 after NKG2D crosslinking (immunoblot); assay type: cell-based, human; details: HTB-78 and MCF-7-TF cells after starvation and mAb 1D11 crosslinking; wortmannin 100 nM, rapamycin 50 nM
smiles,measurement,setting,value
COC[C@H]1OC(=O)c2coc3c2[C@@]1(C)C1=C(C3=O)[C@@H]2CCC(=O)[C@@]2(C)C[C@H]1OC(C)=O [wortmannin],sensitivity of P-AKT appearance to inhibitor,P-AKT(S473),sensitive; also recorded: inhibits AKT phosphorylation
same,"sensitivity of phosphorylation of mTOR, S6K1, and 4E-BP1 to inhibitor",[1],sensitive
